Laboratory results: the supplement of paper PMC12823440, “Inhibitors supercharge kinase turnover through native proteolytic circuits” (Nature, 2025)
Counter-ions that a name gives are not always drawn. This is one part of the list. Hit calls seldom repeat between salt and free forms of one compound.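 Kinases were expressed as nanoluciferase fusions in K562 cells and luminescence was read every 4 h between 2 and 18 h as percent of control, DMSO set to 100% and a positive control to 0%. A time point counts as decreased when the signal drops significantly (2 sigma). The hit call is the authors' own, does not follow from the count of time points alone, and its rule is not shown.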

Sequences of proteins named here, by UniProt entry; tags and fusion partners are left off. A change or cut given only in a name is not applied to a line headed by its entry.
UniProt Q16288, whole entry, looked up: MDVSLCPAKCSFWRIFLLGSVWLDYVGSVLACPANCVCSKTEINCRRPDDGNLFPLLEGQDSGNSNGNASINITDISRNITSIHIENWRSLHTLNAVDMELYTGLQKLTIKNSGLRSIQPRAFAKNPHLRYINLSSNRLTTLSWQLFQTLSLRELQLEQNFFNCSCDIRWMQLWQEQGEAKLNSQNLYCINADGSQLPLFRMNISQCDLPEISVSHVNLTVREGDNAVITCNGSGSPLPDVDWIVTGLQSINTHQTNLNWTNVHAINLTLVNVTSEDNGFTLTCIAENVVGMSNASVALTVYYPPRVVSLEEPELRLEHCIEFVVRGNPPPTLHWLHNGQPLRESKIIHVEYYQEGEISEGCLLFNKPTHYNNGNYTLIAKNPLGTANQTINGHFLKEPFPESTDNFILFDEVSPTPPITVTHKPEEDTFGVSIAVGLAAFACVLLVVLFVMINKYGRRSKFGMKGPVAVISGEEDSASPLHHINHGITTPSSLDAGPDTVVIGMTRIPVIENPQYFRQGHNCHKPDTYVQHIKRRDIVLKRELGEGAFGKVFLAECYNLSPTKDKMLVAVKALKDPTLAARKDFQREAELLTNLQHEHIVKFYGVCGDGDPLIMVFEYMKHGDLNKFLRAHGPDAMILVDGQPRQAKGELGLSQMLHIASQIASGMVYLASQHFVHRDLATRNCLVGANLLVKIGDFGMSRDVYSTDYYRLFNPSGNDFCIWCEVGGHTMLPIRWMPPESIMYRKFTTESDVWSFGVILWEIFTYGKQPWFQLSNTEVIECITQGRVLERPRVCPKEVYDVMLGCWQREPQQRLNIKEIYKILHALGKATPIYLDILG
UniProt O96013: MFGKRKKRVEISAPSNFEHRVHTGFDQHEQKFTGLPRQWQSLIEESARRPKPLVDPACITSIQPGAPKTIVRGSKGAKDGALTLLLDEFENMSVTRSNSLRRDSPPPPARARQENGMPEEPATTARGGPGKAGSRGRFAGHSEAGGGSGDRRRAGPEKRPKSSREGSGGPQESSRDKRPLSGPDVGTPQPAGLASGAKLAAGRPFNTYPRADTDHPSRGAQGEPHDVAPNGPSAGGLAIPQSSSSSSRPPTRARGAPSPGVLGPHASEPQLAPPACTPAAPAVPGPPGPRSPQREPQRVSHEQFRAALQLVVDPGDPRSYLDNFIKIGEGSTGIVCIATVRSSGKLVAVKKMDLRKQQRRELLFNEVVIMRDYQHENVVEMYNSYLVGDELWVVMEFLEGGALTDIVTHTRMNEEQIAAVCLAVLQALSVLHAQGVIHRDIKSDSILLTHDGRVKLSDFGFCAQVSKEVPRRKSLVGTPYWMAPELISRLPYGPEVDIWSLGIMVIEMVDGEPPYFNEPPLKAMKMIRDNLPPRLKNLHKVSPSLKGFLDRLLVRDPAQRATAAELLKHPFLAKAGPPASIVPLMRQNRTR
UniProt Q96KB5: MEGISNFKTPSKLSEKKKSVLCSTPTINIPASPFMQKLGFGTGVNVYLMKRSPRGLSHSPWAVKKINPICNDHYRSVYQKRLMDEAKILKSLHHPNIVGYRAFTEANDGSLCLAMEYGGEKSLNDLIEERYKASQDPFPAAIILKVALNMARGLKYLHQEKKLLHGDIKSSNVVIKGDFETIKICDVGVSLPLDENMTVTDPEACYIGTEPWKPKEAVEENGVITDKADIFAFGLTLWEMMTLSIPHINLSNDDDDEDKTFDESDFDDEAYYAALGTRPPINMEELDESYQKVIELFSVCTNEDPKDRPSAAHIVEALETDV
UniProt P09619, whole entry: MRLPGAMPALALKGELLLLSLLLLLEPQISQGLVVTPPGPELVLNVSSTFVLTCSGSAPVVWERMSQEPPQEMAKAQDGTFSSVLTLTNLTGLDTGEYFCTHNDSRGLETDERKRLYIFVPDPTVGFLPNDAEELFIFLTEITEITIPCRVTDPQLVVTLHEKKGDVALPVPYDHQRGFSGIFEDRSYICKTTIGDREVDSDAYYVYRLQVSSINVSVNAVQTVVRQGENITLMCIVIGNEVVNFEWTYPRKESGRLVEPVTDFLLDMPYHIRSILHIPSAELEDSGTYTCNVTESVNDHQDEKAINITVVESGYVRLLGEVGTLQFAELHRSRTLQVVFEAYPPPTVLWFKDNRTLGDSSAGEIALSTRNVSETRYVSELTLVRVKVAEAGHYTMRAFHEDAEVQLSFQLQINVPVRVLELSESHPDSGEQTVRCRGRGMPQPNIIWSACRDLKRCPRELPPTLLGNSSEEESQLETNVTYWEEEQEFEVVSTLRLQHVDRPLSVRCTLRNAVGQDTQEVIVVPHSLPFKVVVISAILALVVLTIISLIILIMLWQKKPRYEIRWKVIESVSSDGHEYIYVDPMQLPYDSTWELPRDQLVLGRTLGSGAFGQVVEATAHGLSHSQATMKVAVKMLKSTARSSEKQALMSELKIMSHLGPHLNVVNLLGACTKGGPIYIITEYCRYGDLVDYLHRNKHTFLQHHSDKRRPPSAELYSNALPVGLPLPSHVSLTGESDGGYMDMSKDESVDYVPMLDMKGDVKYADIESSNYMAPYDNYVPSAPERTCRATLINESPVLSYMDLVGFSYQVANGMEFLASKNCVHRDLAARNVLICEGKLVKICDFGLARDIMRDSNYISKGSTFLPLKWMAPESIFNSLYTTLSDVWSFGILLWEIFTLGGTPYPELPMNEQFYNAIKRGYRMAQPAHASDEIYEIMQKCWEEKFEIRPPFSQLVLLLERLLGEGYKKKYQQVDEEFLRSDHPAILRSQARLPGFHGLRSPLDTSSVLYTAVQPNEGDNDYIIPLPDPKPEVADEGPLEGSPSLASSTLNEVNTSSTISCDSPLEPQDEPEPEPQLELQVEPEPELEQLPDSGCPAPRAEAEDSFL
UniProt Q15118, whole entry, looked up: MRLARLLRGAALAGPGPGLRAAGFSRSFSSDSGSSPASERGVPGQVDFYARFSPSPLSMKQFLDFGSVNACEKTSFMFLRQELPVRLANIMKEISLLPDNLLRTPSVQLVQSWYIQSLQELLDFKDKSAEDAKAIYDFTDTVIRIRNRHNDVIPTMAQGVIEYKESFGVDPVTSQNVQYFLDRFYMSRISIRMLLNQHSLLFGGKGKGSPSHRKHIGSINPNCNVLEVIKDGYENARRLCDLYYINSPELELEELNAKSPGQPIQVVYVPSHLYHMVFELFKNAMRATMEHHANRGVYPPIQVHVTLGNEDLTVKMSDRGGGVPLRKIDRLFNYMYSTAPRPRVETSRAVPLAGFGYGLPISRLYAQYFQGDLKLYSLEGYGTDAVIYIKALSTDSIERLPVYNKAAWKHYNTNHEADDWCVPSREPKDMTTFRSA
UniProt O15530: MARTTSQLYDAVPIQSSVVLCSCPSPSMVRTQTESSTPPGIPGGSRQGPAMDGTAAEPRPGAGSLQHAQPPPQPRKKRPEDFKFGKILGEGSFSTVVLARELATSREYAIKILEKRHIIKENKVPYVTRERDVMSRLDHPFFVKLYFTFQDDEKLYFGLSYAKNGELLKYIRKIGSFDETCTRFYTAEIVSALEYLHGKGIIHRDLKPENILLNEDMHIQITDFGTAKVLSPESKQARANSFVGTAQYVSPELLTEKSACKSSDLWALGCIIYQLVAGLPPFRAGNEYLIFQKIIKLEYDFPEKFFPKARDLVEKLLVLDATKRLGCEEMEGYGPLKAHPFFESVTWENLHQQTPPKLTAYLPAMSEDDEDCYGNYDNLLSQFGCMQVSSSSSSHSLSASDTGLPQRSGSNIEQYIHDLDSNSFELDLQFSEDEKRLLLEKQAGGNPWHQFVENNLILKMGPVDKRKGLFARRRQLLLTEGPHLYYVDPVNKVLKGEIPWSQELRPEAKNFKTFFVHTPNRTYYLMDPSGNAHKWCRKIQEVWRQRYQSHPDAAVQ
UniProt P42356, whole entry, looked up: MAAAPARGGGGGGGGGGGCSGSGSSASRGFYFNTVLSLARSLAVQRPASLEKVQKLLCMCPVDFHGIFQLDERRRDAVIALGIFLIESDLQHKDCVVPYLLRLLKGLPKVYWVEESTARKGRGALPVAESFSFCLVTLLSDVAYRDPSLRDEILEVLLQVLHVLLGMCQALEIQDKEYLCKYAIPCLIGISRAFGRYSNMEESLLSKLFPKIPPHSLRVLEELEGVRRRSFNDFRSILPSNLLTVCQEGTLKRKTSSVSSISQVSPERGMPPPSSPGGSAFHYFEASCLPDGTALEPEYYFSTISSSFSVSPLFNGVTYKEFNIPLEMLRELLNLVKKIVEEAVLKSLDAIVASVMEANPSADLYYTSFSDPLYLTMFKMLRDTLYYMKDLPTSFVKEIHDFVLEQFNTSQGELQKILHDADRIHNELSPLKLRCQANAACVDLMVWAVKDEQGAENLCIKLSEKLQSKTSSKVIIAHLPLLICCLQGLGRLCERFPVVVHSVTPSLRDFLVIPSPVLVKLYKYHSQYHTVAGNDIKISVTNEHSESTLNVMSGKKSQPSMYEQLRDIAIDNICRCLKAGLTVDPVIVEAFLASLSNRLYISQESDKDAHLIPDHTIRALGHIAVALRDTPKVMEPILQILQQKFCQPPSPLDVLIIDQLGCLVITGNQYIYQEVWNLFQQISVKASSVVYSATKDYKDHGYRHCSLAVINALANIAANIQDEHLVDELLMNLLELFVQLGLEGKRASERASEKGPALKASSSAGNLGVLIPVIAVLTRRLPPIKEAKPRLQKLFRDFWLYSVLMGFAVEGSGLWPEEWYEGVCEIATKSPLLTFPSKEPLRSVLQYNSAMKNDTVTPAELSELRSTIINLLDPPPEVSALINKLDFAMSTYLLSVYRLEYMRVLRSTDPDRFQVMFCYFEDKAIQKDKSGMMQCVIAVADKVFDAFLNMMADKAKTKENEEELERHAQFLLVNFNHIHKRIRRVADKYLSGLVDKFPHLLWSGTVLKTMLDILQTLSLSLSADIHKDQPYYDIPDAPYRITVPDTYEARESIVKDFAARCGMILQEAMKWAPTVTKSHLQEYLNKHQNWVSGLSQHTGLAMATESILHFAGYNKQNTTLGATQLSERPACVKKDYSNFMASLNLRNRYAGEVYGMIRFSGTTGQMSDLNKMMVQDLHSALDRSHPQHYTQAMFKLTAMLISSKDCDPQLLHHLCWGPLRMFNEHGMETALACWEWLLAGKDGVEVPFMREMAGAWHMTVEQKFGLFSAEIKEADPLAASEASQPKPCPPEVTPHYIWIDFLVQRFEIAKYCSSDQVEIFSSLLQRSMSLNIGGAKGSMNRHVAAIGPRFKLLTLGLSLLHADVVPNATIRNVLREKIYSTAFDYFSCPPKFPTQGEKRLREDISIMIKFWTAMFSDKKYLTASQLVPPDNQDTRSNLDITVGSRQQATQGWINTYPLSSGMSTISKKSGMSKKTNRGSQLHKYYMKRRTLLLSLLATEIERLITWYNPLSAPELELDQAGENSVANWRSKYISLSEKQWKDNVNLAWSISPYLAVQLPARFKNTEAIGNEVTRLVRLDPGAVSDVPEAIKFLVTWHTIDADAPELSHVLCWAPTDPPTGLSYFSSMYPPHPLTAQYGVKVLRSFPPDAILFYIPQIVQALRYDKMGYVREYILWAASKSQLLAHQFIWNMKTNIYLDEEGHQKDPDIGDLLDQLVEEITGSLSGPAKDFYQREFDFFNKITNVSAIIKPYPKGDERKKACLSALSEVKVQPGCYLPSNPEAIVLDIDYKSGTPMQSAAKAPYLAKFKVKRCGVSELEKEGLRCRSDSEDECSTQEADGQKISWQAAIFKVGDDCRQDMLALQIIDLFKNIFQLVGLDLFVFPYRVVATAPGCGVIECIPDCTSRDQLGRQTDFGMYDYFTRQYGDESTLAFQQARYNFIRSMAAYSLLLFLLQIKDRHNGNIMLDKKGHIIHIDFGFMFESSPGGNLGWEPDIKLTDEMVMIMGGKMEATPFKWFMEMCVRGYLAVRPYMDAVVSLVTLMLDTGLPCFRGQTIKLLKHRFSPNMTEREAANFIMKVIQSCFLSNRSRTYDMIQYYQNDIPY
UniProt Q13131: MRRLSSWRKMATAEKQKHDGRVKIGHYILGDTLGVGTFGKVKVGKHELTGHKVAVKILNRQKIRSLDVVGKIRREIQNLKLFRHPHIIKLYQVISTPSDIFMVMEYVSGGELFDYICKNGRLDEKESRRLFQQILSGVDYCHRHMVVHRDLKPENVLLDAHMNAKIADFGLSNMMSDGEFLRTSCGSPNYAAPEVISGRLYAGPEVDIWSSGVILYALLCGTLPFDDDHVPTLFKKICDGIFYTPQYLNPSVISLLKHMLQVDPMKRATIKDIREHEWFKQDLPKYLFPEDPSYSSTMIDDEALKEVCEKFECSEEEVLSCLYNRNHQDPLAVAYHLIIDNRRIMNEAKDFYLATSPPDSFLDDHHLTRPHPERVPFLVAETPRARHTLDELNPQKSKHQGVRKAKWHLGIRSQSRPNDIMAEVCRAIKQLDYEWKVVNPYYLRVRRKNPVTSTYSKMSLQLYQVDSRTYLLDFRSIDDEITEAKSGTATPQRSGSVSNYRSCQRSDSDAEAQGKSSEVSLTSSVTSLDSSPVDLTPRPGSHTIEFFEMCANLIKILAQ

Experiments:
Assay in all cases: number of time points (of 5) at which kinase-Nluc abundance scored as decreased, DMSO-normalised (count); higher = more persistent destabilization
Settings in all cases: K562; 2-18 h
[1] = molecular target: NTRK3 (UniProt Q16288)
[2] = molecular target: PAK4 (UniProt O96013)
[3] = molecular target: PBK (UniProt Q96KB5)
[4] = molecular target: PDGFRB (UniProt P09619)
[5] = molecular target: PDK1 (UniProt Q15118)
[6] = molecular target: PDPK1 (UniProt O15530)
[7] = molecular target: PIK4CA (UniProt P42356)
[8] = molecular target: PIK4CB (UniProt Q9UBF8)
[9] = molecular target: PLK1 (UniProt P53350)
[10] = molecular target: PRKAA1 (UniProt Q13131)

Measured: number of time points

Nc1ncnc2c1c(-c1ccc(Oc3ccccc3)cc1)cn2C1CCCC1 (2.5 µM)
0: all assays above

N#C/C(=C\c1ccc(O)c(O)c1)C(=O)NCc1ccccc1 (10 µM)
0: all assays above

CCc1nc(-c2cccc(C)c2)c(-c2ccnc(NC(=O)c3ccccc3)c2)s1 (10 µM)
0: all assays above

COc1cc2ncnc(Nc3cccc(O)c3)c2cc1OC (10 µM)
2: [7]
0: [2] | [3] | [5]
3: [10]
4: [6]
1: all other assays above

Cc1cc(C(=O)Nc2cccc(C(=O)Nc3cccc(C(F)(F)F)c3)c2)on1 (10 µM)
0: all assays above

Cn1c(=O)c(Oc2ccc(F)cc2F)cc2cnc(NC3CCOCC3)nc21 [R1487 (Hydrochloride)] (10 µM)
0: all assays above

Cc1c[nH]c(/C=C2\C(=O)Nc3ccccc32)c1CCC(=O)O (10 µM)
0: all assays above

Nc1nc(OCC2CCCCC2)c2[nH]cnc2n1 (10 µM)
0: all assays above

COc1cc2ncnc(Nc3ccc(O)cc3)c2cc1OC (10 µM)
0: all assays above

CC(C)n1cnc2c(NCc3cccc(C(F)(F)F)c3)ncnc21 [Longdaysin] (10 µM)
0: all assays above

COc1c(CC=C(C)C)c(O)cc2oc(=O)c(-c3ccc(O)cc3O)cc12 [Glycycoumarin] (10 µM)
0: all assays above

CN(C)CCOc1ccc(-c2nc(-c3ccncc3)c(-c3ccc4c(c3)CC/C4=N\O)[nH]2)cc1 (10 µM)
0: all assays above

Cc1nc(N)sc1-c1ccnc(Nc2ccc(N3CCOCC3)cc2)n1 (10 µM)
0: all assays above

Nc1nc(N)c(N=O)c(OCC2CCCCC2)n1 (10 µM)
0: all assays above

CNC(=O)c1cccc2cc(Oc3ccnc4cc(OCC5(N)CC5)c(OC)cc34)ccc12 [Lucitanib] (10 µM)
0: all assays above

N#CC(=Cc1ccc(O)c(O)c1)C(=O)NCc1ccccc1 (mixture of isomers) (10 µM)
0: all assays above

COC(=O)c1ccc2c(C(=Nc3ccc(N(C)C(=O)CN4CCN(C)CC4)cc3)c3ccccc3)c(O)[nH]c2c1 [Nintedanib] (2.5 µM)
0: all assays above

COCc1c(-c2ccc(NC(=O)Nc3cc(C(F)(F)F)ccc3F)c(F)c2)c2c(N)ncnn2c1CN1CCOCC1 (2.5 µM)
0: all assays above

COc1ccc2c(C(=O)Nc3ccc(NC(=O)c4nn(C5CCN(C(=O)CC(C)(C)C#N)CC5)c5ccc(F)cc45)cc3Cl)cnn2c1 [Src Inhibitor 3] (2.5 µM)
3: [6] | [9]
1: [10]
0: [2] | [3] | [5]
2: all other assays above

COc1cc(N2CCC(N)CC2)ccc1Nc1ncc(Cl)c(-c2c[nH]c3ccccc23)n1 (2.5 µM)
0: all assays above

O=C(c1ccc(-c2ccc(Cl)cc2)o1)N(Cc1ccccn1)c1ccc(N2CCNCC2)cc1 [MK2-IN-1 (hydrochloride)] (10 µM)
1: [6] | [8]
0: all other assays above

CC(C)(C)S(=O)(=O)c1cc2c(Nc3ccc4scnc4c3)ncnc2cc1OCCO (2.5 µM)
0: all assays above

C=CC(=O)N1CCC[C@@H](n2nc(-c3ccc(Oc4ccccc4)cc3)c(C(N)=O)c2N)C1 [Btk inhibitor 2] (10 µM)
0: all assays above

FC(F)(F)c1ccc(CNc2ccc(Cc3c[nH]c4ncc(Cl)cc34)cn2)cc1 (10 µM)
0: all assays above

O=c1c(-c2ccc(O)cc2)coc2cc(O)cc(O)c12 [Genistein] (10 µM)
0: all assays above

CC(C)c1ccc2oc3nc(N)c(C(=O)O)cc3c(=O)c2c1 [Amlexanox] (10 µM)
0: all assays above

O=c1oc2c(C3OCCCO3)c(O)ccc2c2c1CNCC2 (10 µM)
0: all assays above

C=CC(=O)Nc1cccc(Nc2nc(Nc3ccc(OCCOC)cc3)ncc2F)c1 [Spebrutinib] (10 µM)
1: [8]
0: all other assays above

CCCCNc1ncc(-c2ccc(CN3CCOCC3)cn2)c(NC2CCC(O)CC2)n1 (centres undefined) (10 µM)
0: all assays above

NC(=O)c1ccc2nc(-c3ccc(Oc4ccc(Cl)cc4)cc3)[nH]c2c1 (10 µM)
0: all assays above

Cc1ncc(-c2ccnc(Nc3ccc(S(C)(=O)=O)cc3)n2)n1C(C)C (2.5 µM)
2: [6]
0: all other assays above

O=c1cc(-c2ccccc2)oc2c(O)c(O)ccc12 [7,8-Dihydroxyflavone] (10 µM)
0: all assays above

CNc1nc(-c2ccc3c(N)n[nH]c3c2)cc(N2C[C@@H](C(=O)NC3CCCCC3)CC[C@H]2C)n1 (10 µM)
5: [8]
0: all other assays above

COc1cc(C=C(C#N)C(N)=O)cc(CSc2nc3ccccc3s2)c1O (10 µM)
0: all assays above

Cc1ccc(NC(=O)Nc2nnc(Sc3ncnc4cc(OCCCN5CCOCC5)ccc34)s2)cc1 (10 µM)
2: [7]
0: all other assays above

C=CC(=O)N1C[C@H](Nc2ncnc3[nH]ccc23)CC[C@@H]1C [Ritlecitinib] (10 µM)
0: all assays above

CC[C@H](CO)Nc1nc(NCc2ccccc2)c2ncn(C(C)C)c2n1 [Seliciclib] (10 µM)
0: all assays above

COc1cc(OC)c(F)c(COc2cnc(Nc3cnn(CCO)c3)nc2)c1F (2.5 µM)
1: [4] | [5] | [8]
0: all other assays above

Oc1cc(O)cc(/C=C/c2ccc(O)c(O)c2)c1 [Piceatannol] (10 µM)
4: [8]
3: [6] | [9] | [10]
2: [7]
0: all other assays above

CC(=O)N1CCN(c2ccc(OCC3COC(Cn4ccnc4)(c4ccc(Cl)cc4Cl)O3)cc2)CC1 (centres undefined) [Ketoconazole] (2.5 µM)
0: all assays above

COc1ccc(Oc2cc(NCCC(F)(F)F)c3ncc(-c4ccc(C(=O)NC5CC5)c(C)c4)n3n2)c(F)c1F (2.5 µM)
0: all assays above

CCC(=O)N1CCN(c2ccc(-n3c(=O)ccc4cnc5ccc(-c6cnc7ccccc7c6)cc5c43)cc2C(F)(F)F)CC1 [Torin 1] (2 µM)
2: [6]
3: [1]
0: all other assays above

COc1cc(Oc2ccnc3cc(OC)c(OC)cc23)ccc1NC(=O)NC(C)c1nccs1 (centres undefined) (2.5 µM)
0: all assays above

N#C/C(=C\c1ccc(O)c(O)c1)C(=O)NCCCc1ccccc1 (10 µM)
0: all assays above

O=S(=O)(NCCNC/C=C/c1ccc(Br)cc1)c1cccc2cnccc12 [H-89 (dihydrochloride)] (10 µM)
0: all assays above

CCCn1cnc2c(NCc3ccccc3)nc(NC(CC)CO)nc21 (centres undefined) [Ca2+ channel agonist 1] (2.5 µM)
0: all assays above

Cn1nc(C(C)(C)C)cc1NC(=O)Nc1ccc(Oc2ccncc2)cc1 (10 µM)
3: [4]
4: [1]
1: [8]
0: all other assays above

CN(c1ncccc1CNc1nc(Nc2ccc3c(c2)CC(=O)N3)ncc1C(F)(F)F)S(C)(=O)=O (2.5 µM)
not listed: [4]
0: all other assays above
